The list does not hold the whole screen: it gathers tests that were run many times, whatever their T/C, doses with no T/C, and many T/C values between a quarter and a half above the control. Other doses and runs of a compound stand elsewhere. T/C: endpoint of the treated group in % of that of the vehicle group. Some doses have a count of surviving animals in place of a T/C: the source holds a T/C of zero for them, seemingly a mark for toxic or unscored doses. Some survivor counts are full or nearly so, which does not show that the dose was tolerated: survival well below the control is almost never listed, so the zero probably covers shortened survival too. Survivors were counted at the toxicity check, usually on the fifth day, unless a day is given; later deaths do not show. Schedules are NCI's codes, taken here to give the interval after Q, in days (D) or hours (H), and the number of doses after X. Some doses were run more than once; the results are listed from low to high.
System: L1210 leukemia ip in BDF1 mice, survival T/C
Assay: NCI In Vivo Anticancer Drug Screen. Data for tumor model L1210 Leukemia (intraperitoneal) in B6D2F1 (BDF1) mice
Details: T/C endpoint: mean survival time, higher T/C = longer survival
[1] = dose: 150.0 mg/kg/injection, schedule: Q01DX001 (ip), vehicle: other
[2] = dose: 300.0 mg/kg/injection, schedule: Q01DX001 (ip), vehicle: other

OCCNC1c2ccccc2-c2ccccc21
survivor count (dose: 400.0 mg/kg/injection, schedule: Q04DX003 (ip), vehicle: Klucel (hydroxypropylcellulose) (HPC)): 1 of 6

CCN(CC)CCSC(=O)C(O)(c1ccccc1)C1CCCCC1 (stereo not drawn)
survivor count [1]: 3 of 6
survivor count [2]: 0 of 6

CC(C)(C)C1=CC(=O)C(Cl)(C(C)(C)C)C(Cl)C1=O (stereo not drawn)
survivor count (dose: 400.0 mg/kg/injection, schedule: Q01DX001 (ip), vehicle: saline with Tween-80): 1 of 3

O=C(O)c1cc(Br)c(Br)s1
survivor count (dose: 200.0 mg/kg/injection, schedule: Q01DX009 (ip), vehicle: saline with Tween-80): 3 of 6

COC(=O)c1ccc(OC(=O)Nc2ccccc2[N+](=O)[O-])cc1
survivor count (dose: 400.0 mg/kg/injection, schedule: Q01DX009 (ip), vehicle: saline with Tween-80): 5 of 6 and 3 of 3
survivor count (dose: 400.0 mg/kg/injection, schedule: Q04DX002 (ip), vehicle: saline with Tween-80): 2 of 3

CSc1ccc(NC(=O)Nc2ccc(Cl)cc2[N+](=O)[O-])cc1
survivor count (dose: 400.0 mg/kg/injection, schedule: Q01DX009 (ip), vehicle: Klucel (hydroxypropylcellulose) (HPC)): 1 of 6

OCCCCCCN=Cc1ccccc1O.OCCCCCCN=Cc1ccccc1O.[Cu]
survivor count [1]: 0 of 6
survivor count [2]: 2 of 6

O=C(O)c1cc(-c2cccs2)c(C(=O)O)s1
survivor count (dose: 400.0 mg/kg/injection, schedule: Q04DX003 (ip), vehicle: other): 3 of 6

CC1=C2C(=CO[C@H](C)[C@H]2C)C(=O)C(C(=O)O)=C1O
survivor count (dose: 100.0 mg/kg/injection, schedule: Q04DX002 (ip), vehicle: saline with Tween-80): 0 of 3
survivor count (dose: 200.0 mg/kg/injection, schedule: Q04DX002 (ip), vehicle: saline with Tween-80): 0 of 3

— PubChem BioAssay AID248 (DTP/NCI, 2004)
